# From PubChem BioAssay AID504467 (National Center for Advancing Translational Sciences (NCATS), 2011)
# The campaign covered roughly 330,000 compounds. About 7,700 (2.3%) were called active. Inconclusive results, whose numbers are uncertain, are shown with a selection of clear calls. Calls follow the shape of the dose curve; as a rule, active = well fitted inhibition curve with a large enough effect; inconclusive = small, poorly fitted or top-dose-only effect, or effect the other way; inactive = flat fitted curve, though single readings scatter. Potencies of inconclusive entries are doubtful fits and often do not repeat.
# Assay: qHTS screen for small molecules that inhibit ELG1-dependent DNA repair in human embryonic kidney (HEK293T) cells expressing luciferase-tagged ELG1; also: nearly all actives have a fitted effect of over 55% in size
# Conditions: HEK293T ELG1-luciferase reporter, luminescence, 16 h, DNA damage induced by 5-fluorouridine; series mostly up to 46.1 µM
# Procedure, shortened: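 5-Fluorouridine DNA damage + compound/DMSO, 2,000 cells/well, 16 h, 37 °C/5% CO2. ONE-Glo, 30 min RT, luminescence. Readout = decrease in reporter signal.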
# Potency is read from the fitted curve at half-maximal effect.
row,SMILES,Potency
1,CN(CC(=O)Nc1ccccc1Br)C(=O)CN1CCN(c2ccccc2Cl)CC1,inactive
2,CCOc1ccccc1NC(=S)N1CCN(c2nc(-c3ccc(F)cc3)cs2)CC1,"inconclusive: 29.1 µM [inhibitor, single point]"
3,COc1cc(/C=C/C(=O)OCC(=O)N2c3ccccc3CC2C)cc(OC)c1OC (configuration not stated),"inconclusive: 14.6 µM [inhibitor, partial curve, poor fit]"
4,CCOc1cc(N2CCOCC2)c(OCC)cc1NC(=O)CN1CCC(Cc2ccccc2)CC1,"inconclusive: 20.6 µM [inhibitor, partial curve, poor fit]"
5,Cc1ccccc1CN1CCNC1=O,"inconclusive: 16.4 µM [inhibitor, single point]"
6,CNC(=S)Nc1ccc(Nc2ccccc2)cc1,"inconclusive: 16.4 µM [activator, partial curve]"
7,CC1CCC(C(C)C)C(OC(=O)Cn2c(-c3ccc(Br)cc3)[n+](C)c3ccccc32)C1 (configuration not stated),active: 13 µM
8,Cc1oc(CC(C)C)cc1C(=O)Nc1cccc2ccccc12,inactive
9,CCCCNC(=O)C1CC(c2c(Cl)cccc2Cl)=NO1 (configuration not stated),inactive
10,O=C(Nc1cccc(Cl)c1)c1cnn2cccnc12,"inconclusive: 6.51 µM [activator, partial curve]"
11,O=C(Cc1ccc(NS(=O)(=O)c2cccc(C(F)(F)F)c2)cc1)NCCN1CCOCC1,inactive
12,CCN(CC)S(=O)(=O)c1cc(C)ccc1SC,inactive
13,COc1ccc(NC(=O)COC(=O)c2ccc(OC)c(S(=O)(=O)N3CCCC3)c2)cc1OC,"inconclusive: 8.2 µM [inhibitor, partial curve]"
14,CCOC(=O)CSc1nc(C)cc(Oc2ccc(=O)n(C)n2)n1,"inconclusive: 20.6 µM [activator, partial curve, poor fit]"
15,Cc1cc(C)c(NC(=O)CN2C(=O)NC3(CCCc4ccccc43)C2=O)c(Cl)c1 (configuration not stated),inactive
16,COc1ccc2c(c1OC)C(=O)N(c1nccs1)C2,"inconclusive: 9.2 µM [activator, partial curve]"
17,CC(C(=O)c1ccc(-c2ccccc2)cc1)[n+]1cccc(C(N)=O)c1 (configuration not stated),inactive
18,COc1cc(/C=C(\C#N)C(=O)N2CCCCC2)ccc1O,"inconclusive: 25.9 µM [activator, single point]"
19,Cc1ccc(NC(=O)c2ocnc2C)cc1Cl,"inconclusive: 18.4 µM [activator, partial curve]"
20,COc1ccc(Cl)cc1C(=O)Nc1nc(C)cc(C)n1,inactive
21,COc1ccccc1N/N=C1\COC(C)(C)CC1=O,"inconclusive: 18.3 µM [activator, single point]"
22,C#CCOc1ccc(/C=C2/C(=O)N(c3cccc(C(=O)O)c3)N=C2C)cc1OC,"inconclusive: 16.4 µM [activator, partial curve]"
23,Cc1ccc(NC(=O)NCC2CC2(Cl)Cl)cc1 (configuration not stated),"inconclusive: 16.4 µM [activator, partial curve]"
24,Cc1nc(-c2ccc(S(=O)(=O)N3CCN(c4cccc(C)c4C)CC3)cc2)co1,"inconclusive: 18.3 µM [inhibitor, single point]"

row,SMILES,Potency
1,CCOC(=O)c1cc(NC(=O)c2cccnc2)ccc1N1CCOCC1,"inconclusive: 20.6 µM [inhibitor, single point]"
2,O=C(CSc1nc2ccccc2c(=O)n1Cc1ccco1)c1ccc(F)cc1,"inconclusive: 18.4 µM [inhibitor, partial curve]"
3,CCC(C)(C(=O)NC1CCCC1)N(Cc1cccs1)C(=O)c1ccc2c(c1)OCO2 (configuration not stated),inactive
4,COc1ccccc1-c1nc(SCc2ccccn2)n[nH]1,"inconclusive: 18.4 µM [activator, partial curve]"
5,C[C@H]1CN=C(N(C)C)N1CCC1CCCC1,"inconclusive: 2.82 µM [activator, partial curve, poor fit]"
6,NC(=O)COC(=O)C12CC3CC(CC(O)(C3)C1)C2,inactive
7,COCc1c(C(=O)OCC(=O)c2c(N)n(CC(C)C)c(=O)n(C)c2=O)oc2ccccc12,"inconclusive: 16.4 µM [inhibitor, single point]"
8,COc1ccc(C)cc1NC(=O)CSc1nnc(COc2ccccc2)n1Cc1ccco1,active: 18.4 µM
9,O=C(O)c1ccc(/C=N/NC(=S)NCCN2CCOCC2)cc1,inactive
10,CCOC(=O)c1c(NC(=O)c2c(Br)cnn2CC)sc(C)c1C,"inconclusive: 23.1 µM [inhibitor, partial curve, poor fit]"
11,O=C(c1cccc(Br)c1)c1coc2ccc(O)cc12,"inconclusive: 8.2 µM [activator, partial curve]"
12,CN1CCN(C(=O)c2cc3sc4ccccc4c3s2)CC1,"inconclusive: 2.31 µM [activator, full curve]"
13,Cc1[nH]n(-c2ccccc2)c(=O)c1/C=N/NC(=O)c1ccoc1C,"inconclusive: 29.1 µM [activator, single point]"
14,O=C(COc1cc2oc(=O)c3c(c2cc1Cl)CCC3)NCCCn1ccnc1,inactive
15,CCNC(=S)NNC(=O)c1cc(-c2cccc(C)c2)nc2ccccc12,"inconclusive: 2.91 µM [activator, full curve]"
16,O=C(CNC(=O)c1ccc(Cl)cc1)N/N=C/C=C/c1ccccc1,inactive
17,CCOC(=O)CSc1nc2ccc(NC(C)=O)cc2s1,inactive
18,COc1ccccc1C(C)NC(=O)c1cc(=O)[nH]c2ccccc12 (configuration not stated),inactive
19,COc1cccc(N2C(=NC(=O)CCc3ccccc3)SC3CS(=O)(=O)CC32)c1 (configuration not stated),"inconclusive: 18.3 µM [activator, partial curve, poor fit]"
20,CSc1nc(Cc2ccccc2)nc2ccccc12,inactive
21,CCN(CC(=O)Nc1ccc(OC)cc1)C(=O)CSCC(=O)Nc1cc(C)on1,"inconclusive: 23.1 µM [activator, partial curve]"
22,COc1ccc(S(=O)(=O)Oc2ccc(C(=S)N3CCOCC3)cc2OC)cc1,"inconclusive: 11.2 µM [inhibitor, partial curve, poor fit]"
23,O=C(COc1ccccc1Cl)N(Cc1ccco1)C1CCS(=O)(=O)C1 (configuration not stated),inactive

# Gathered by group: the entries above with a COOH group
row,SMILES,Potency
22,C#CCOc1ccc(/C=C2/C(=O)N(c3cccc(C(=O)O)c3)N=C2C)cc1OC,"inconclusive: 16.4 µM [activator, partial curve]"
9,O=C(O)c1ccc(/C=N/NC(=S)NCCN2CCOCC2)cc1,inactive
